Results are given in words; binding and its absence hold for the method and conditions named. In cells and extracts the contact can be indirect. Some results given as binding are weak or reduced against the parent protein; the word gives no strength. Sequences can lack the tags named with a protein.
B1: HA-tagged KNSTRN (protein, UniProt Q9Y448 1-316)
chain: MAAPEAPPLDRVFRTTWLSTECDSHPLPPSYRKFLFETQAADLAGGTTVAAGNLLNESEKDCGQDRRAPGVQPCRLVTMTSVVKTVYSLQPPSALSGGQPADTQTRATSKSLLPVRSKEVDVSKQLHSGGPENDVTKITKLRRENGQMKATDTATRRNVRKGYKPLSKQKSEEELKDKNQLLEAVNKQLHQKLTETQGELKDLTQKVELLEKFRDNCLAILESKGLDPALGSETLASRQESTTDHMDSMLLLETLQEELKLFNETAKKQMEELQALKVKLEMKEERVRFLEQQTLCNNQVNDLTTALKEMEQLLEM
B2: HA-tagged RBM42 (protein, UniProt Q9BTD8 1-480)
chain: MAGAGPAPGLPGAGGPVVPGPGAGIPGKSGEERLKEMEAEMALFEQEVLGAPVPGIPTAVPAVPTVPTVPTVEAMQVPAAPVIRPIIATNTYQQVQQTLEARAAAAATVVPPMVGGPPFVGPVGFGPGDRSHLDSPEAREAMFLRRAAVAPQRAPILRPAFVPHVLQRADSALSSAAAGPRPMALRPPHQALVGPPLPGPPGPPMMLPPMARAPGPPLGSMAALRPPLEEPAAPRELGLGLGLGLKEKEEAVVAAAAGLEEASAAVAVGAGGAPAGPAVIGPSLPLALAMPLPEPEPLPLPLEVVRGLLPPLRIPELLSLRPRPRPPRPEPPPGLMALEVPEPLGEDKKKGKPEKLKRCIRTAAGSSWEDPSLLEWDADDFRIFCGDLGNEVNDDILARAFSRFPSFLKAKVIRDKRTGKTKGYGFVSFKDPSDYVRAMREMNGKYVGSRPIKLRKSMWKDRNLDVVRKKQKEKKKLGLR
B3: HA-tagged RAVER1 (protein, UniProt Q8IY67 1-606)
chain: MAADVSVTHRPPLSPKSGAEVEAGDAAERRAPEEELPPLDPEEIRKRLEHTERQFRNRRKILIRGLPGDVTNQEVHDLLSDYELKYCFVDKYKGTAFVTLLNGEQAEAAINAFHQSRLRERELSVQLQPTDALLCVANLPPSLTQQQFEELVRPFGSLERCFLVYSERTGQSKGYGFAEYMKKDSAARAKSDLLGKPLGPRTLYVHWTDAGQLTPALLHSRCLCVDRLPPGFNDVDALCRALSAVHSPTFCQLACGQDGQLKGFAVLEYETAEMAEEAQQQADGLSLGGSHLRVSFCAPGPPGRSMLAALIAAQATALNRGKGLLPEPNILQLLNNLGPSASLQLLLNPLLHGSAGGKQGLLGAPPAMPLLNGPALSTALLQLALQTQGQKKPGILGDSPLGALQPGAQPANPLLGELPAGGGLPPELPPRRGKPPPLLPSVLGPAGGDREALGLGPPAAQLTPPPAPVGLRGSGLRGPLSHFYSGSPTSYFTSGLQAGLKQSHLSKAIGSSPLGSGEGLLGLSPGPNGHSHLLKVRAGGGDMQGWEAPAPQRPLTRPALPSVSRPHWAARNAALPTCCPRPSPAQKAAMWASTPRASAATTRTPT
B4: HA-tagged RBM19 (protein, UniProt Q9Y4C8 1-960)
chain: MSRLIVKNLPNGMKEERFRQLFAAFGTLTDCSLKFTKDGKFRKFGFIGFKSEEEAQKAQKHFNKSFIDTSRITVEFCKSFGDPAKPRAWSKHAQKPSQPKQPPKDSTTPEIKKDEKKKKVAGQLEKLKEDTEFQEFLSVHQRRAQAATWANDGLDAEPSKGKSKPASDYLNFDSDSGQESEEEGAGEDLEEEASLEPKAAVQKELSDMDYLKSKMVKAGSSSSSEEEESEDEAVHCDEGSEAEEEDSSATPVLQERDSKGAGQEQGMPAGKKRPPEARAETEKPANQKEPTTCHTVKLRGAPFNVTEKNVMEFLAPLKPVAIRIVRNAHGNKTGYIFVDFSNEEEVKQALKCNREYMGGRYIEVFREKNVPTTKGAPKNTTKSWQGRILGENEEEEDLAESGRLFVRNLPYTSTEEDLEKLFSKYGPLSELHYPIDSLTKKPKGFAFITFMFPEHAVKAYSEVDGQVFQGRMLHVLPSTIKKEASEDASALGSSSYKKKKEAQDKANSASSHNWNTLFMGPNAVADAIAQKYNATKSQVFDHETKGSVAVRVALGETQLVQEVRRFLIDNGVSLDSFSQAAAERSKTVILVKNLPAGTLAAQLQETFGHFGSLGRVLLPEGGITAIVEFLEPLEARKAFRHLAYSKFHHVPLYLEWAPVGVFSSTAPQKKKLQDTPSEPMEKDPAEPETVPDGETPEDENPTEEGADNSSAKMEEEEEEEEEEEESLPGCTLFIKNLNFDTTEEKLKEVFSKVGTVKSCSISKKKNKAGVLLSMGFGFVEYRKPEQAQKALKQLQGHVVDGHKLEVRISERATKPAVTLARKKQVPRKQTTSKILVRNIPFQAHSREIRELFSTFGELKTVRLPKKMTGTGTHRGFGFVDFLTKQDAKRAFNALCHSTHLYGRRLVLEWADSEVTLQALRRKTAAHFHEPPKKKRSVVLDEILEQLEGSDSDSEEQTLQL

Biological target: SARS-CoV-2 ORF9B with C-terminal Twin-Strep tag (SARS-CoV-2) (UniProt P0DTD2)
Assay: co-IP

| Molecule | binding |
| --- | --- |
| HA-tagged SQSTM1 (from UniProt Q13501 1-440) | binds |
| B1 | binds |
| B2 | binds |
| B3 | binds |
| B4 | binds |

— paper PMC12539243
